Results from the supplement of paper PMC3334620.
Whole data set: some 33,000 sequences, median “E-score (-0.5 to 0.5)” near -0.0014, cut for the highest 2% near 0.25. The list shows a part of the results.

target: T1, Cad1 (UniProt P24813); assay: PBM E-score (8-mer binding enrichment) (E-score (-0.5 to 0.5)); higher = stronger / more preferred TF binding; details: protein concentration: 100 nM; construct: GST-full length
T1 sequence: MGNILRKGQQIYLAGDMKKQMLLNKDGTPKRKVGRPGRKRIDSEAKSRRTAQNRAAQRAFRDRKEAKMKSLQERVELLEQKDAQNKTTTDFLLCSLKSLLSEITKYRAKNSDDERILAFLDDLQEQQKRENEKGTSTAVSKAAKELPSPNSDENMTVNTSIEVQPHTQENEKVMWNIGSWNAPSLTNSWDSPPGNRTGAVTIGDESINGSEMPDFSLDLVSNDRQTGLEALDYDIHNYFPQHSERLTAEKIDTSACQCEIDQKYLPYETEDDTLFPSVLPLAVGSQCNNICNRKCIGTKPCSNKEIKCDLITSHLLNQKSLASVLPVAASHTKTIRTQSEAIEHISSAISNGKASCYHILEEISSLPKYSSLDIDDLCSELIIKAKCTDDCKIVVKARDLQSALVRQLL
Method: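 Universal 'all 10-mer' protein binding microarrays (Agilent AMADID 015681) probed with GST-tagged S. cerevisiae TFs (full-length or DBD) made by in vitro transcription/translation (PURExpress), about 100-200 nM. Bound TF was detected with fluorescent anti-GST. Each ungapped 8-mer (which stands for itself and its reverse complement) is scored by the PBM enrichment score (E-score), a modified Wilcoxon-Mann-Whitney statistic from -0.5 to +0.5, computed with the Universal PBM Analysis Suite. Scale: above 0.35 generally sequence-specific binding.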

First: GAGGGAAC
Second: GAGGTAAA
The “PBM E-score” value of the first is lower: -0.0626 for the first, -0.00777 for the second.

Going from ACGGTATA to GGAGAGCC, the “PBM E-score” value falls from 0.0261 to -0.284.

Going from AACGTGTC to TCAGGAGA, the “PBM E-score” value rises from 0.0353 to 0.0395.

Compared with CCGTAACG, GGAACAAC is higher in “PBM E-score” value: -0.0334 for the first, 0.176 for the second.

First: CCGCTCAC
Second: ATCCTGCC
The “PBM E-score” value of the first is higher: -0.0771 for the first, -0.194 for the second.

Compared with ACGTTGGG, GCTTACAC is higher in “PBM E-score” value: 0.0171 for the first, 0.23 for the second.

First: ACTTAAGA
Second: CCGTTTGA
The “PBM E-score” value of the first is higher: -0.00148 for the first, -0.0814 for the second.

Going from CCGTCTGA to GTGCGGCA, the “PBM E-score” value rises from -0.0463 to 0.083.

Compared with ACAATAGC, ATCGAGTG is higher in “PBM E-score” value: -0.111 for the first, 0.0622 for the second.

Compared with ACTTGCCG, GGAGCACC is higher in “PBM E-score” value: -0.174 for the first, -0.0566 for the second.

First: AAGCTGAA
Second: ATCAGGAC
The “PBM E-score” value of the first is lower: 0.0834 for the first, 0.114 for the second.

Going from AGGTTTCG to AGTATGGC, the “PBM E-score” value rises from -0.0287 to -0.021.

Compared with CTGACAAC, AAGGTGCC is lower in “PBM E-score” value: 0.0707 for the first, -0.061 for the second.

Compared with ATCGCCGC, GTCCGCGA is lower in “PBM E-score” value: 0.13 for the first, 0.0898 for the second.

First: CTGCAGCC
Second: CGACCACG
The “PBM E-score” value of the first is lower: 0.0208 for the first, 0.0831 for the second.

First: GGCCTCCA
Second: GTTGATAA
The “PBM E-score” value of the first is lower: 0.00254 for the first, 0.188 for the second.

First: GAGAATGA
Second: ACGGCTTC
The “PBM E-score” value of the first is higher: 0.0166 for the first, -0.00745 for the second.

First: AATGCGCC
Second: CCATTTTA
The “PBM E-score” value of the first is lower: -0.00918 for the first, 0.0965 for the second.

Compared with GGAAGGCA, CGTGGCCA is lower in “PBM E-score” value: 0.0286 for the first, -0.176 for the second.

Going from ATAGTAGC to AACTTTCT, the “PBM E-score” value falls from 0.143 to 0.00602.

First: ATTTCTCC
Second: GGACGGCA
The “PBM E-score” value of the first is higher: -0.0308 for the first, -0.0773 for the second.

Compared with CGGATCGC, GTGTGACA is lower in “PBM E-score” value: 0.189 for the first, 0.0138 for the second.

First: CGGGTTGC
Second: ACCGTTTC
The “PBM E-score” value of the first is higher: 0.0476 for the first, -0.0432 for the second.

Compared with CTACCGTA, AAGTCTGT is higher in “PBM E-score” value: -0.105 for the first, 0.107 for the second.

Going from GACCGCCC to AAATAAAC, the “PBM E-score” value rises from -0.219 to 0.135.

Compared with ATACGAAG, CCGACAGC is lower in “PBM E-score” value: 0.0441 for the first, -0.21 for the second.

Going from AAGACGAA to ATCTCTCC, the “PBM E-score” value falls from 0.0967 to -0.134.

Going from TAATGCAA to CAAATATG, the “PBM E-score” value rises from -0.0846 to 0.135.

First: CTAACCAG
Second: CCCTTTAG
The “PBM E-score” value of the first is higher: 0.0758 for the first, -0.266 for the second.

Going from CTACTAGA to CCGTAGGA, the “PBM E-score” value falls from -0.0699 to -0.14.

Going from CAGCGCTG to GCCAACGC, the “PBM E-score” value falls from 0.263 to 0.188.

First: GATCAATC
Second: AAACAGGA
The “PBM E-score” value of the first is lower: -0.0553 for the first, 0.0149 for the second.

Going from ATACAAAT to ACTGTTGG, the “PBM E-score” value falls from 0.131 to -0.0581.

Going from ATTTCTTA to GCCCCCGA, the “PBM E-score” value falls from 0.133 to -0.382.

Going from AGACGAAT to CGATGAAG, the “PBM E-score” value falls from -0.0535 to -0.0787.

Compared with AAGCATCG, ACCGATCT is lower in “PBM E-score” value: 0.0399 for the first, -0.198 for the second.

First: ATCTTCCG
Second: TAATAGCA
The “PBM E-score” value of the first is lower: -0.0426 for the first, 0.0297 for the second.

Going from ATTTAGTG to CCGCAATC, the “PBM E-score” value falls from 0.176 to 0.0652.

First: AGAGTCTC
Second: CCTTAACA
The “PBM E-score” value of the first is lower: -0.0766 for the first, -0.0661 for the second.

Going from AGGGGATA to ATAGCACA, the “PBM E-score” value rises from -0.154 to 0.029.

Compared with ACGGTTAC, CGTAAACG is lower in “PBM E-score” value: 0.0282 for the first, -0.0817 for the second.

Compared with CTTGGGAC, ATGATATA is higher in “PBM E-score” value: -0.0745 for the first, -0.027 for the second.

Going from CTACTCCC to AGGTGTAT, the “PBM E-score” value rises from 0.0213 to 0.0309.

Compared with AAACGGCC, CGGGTTGA is lower in “PBM E-score” value: 0.0711 for the first, -0.0422 for the second.

Going from CCTGGAAA to CCTTCGCA, the “PBM E-score” value falls from -0.0814 to -0.206.

Compared with GTGGAGAA, TACGCGTA is higher in “PBM E-score” value: 0.0656 for the first, 0.114 for the second.

Compared with GTGATGCA, ACTACGAA is lower in “PBM E-score” value: 0.147 for the first, 0.0932 for the second.

First: GTTCCCTA
Second: GCTACCTA
The “PBM E-score” value of the first is lower: -0.0845 for the first, 0.0857 for the second.

Going from ACATCCGT to ATGGCTGG, the “PBM E-score” value falls from 0.0223 to -0.224.

First: ATCAAGGC
Second: CCGGGGTC
The “PBM E-score” value of the first is higher: 0.038 for the first, -0.102 for the second.

Compared with GATCACCA, ACGCAACA is lower in “PBM E-score” value: 0.163 for the first, -0.0161 for the second.

Compared with CACCAGCA, CTCAGCAC is higher in “PBM E-score” value: -0.0515 for the first, 0.0326 for the second.

Going from GGACTACA to GCTGATAA, the “PBM E-score” value rises from -0.178 to 0.161.

Compared with CGTTCGAA, AATGCAGA is lower in “PBM E-score” value: 0.177 for the first, 0.0276 for the second.

Going from CCCCTCGC to CATAGATC, the “PBM E-score” value rises from -0.202 to -0.0563.

First: CGGAAAAC
Second: CACTCCCA
The “PBM E-score” value of the first is higher: 0.221 for the first, -0.11 for the second.

Compared with AAACTACG, AACTAAAA is higher in “PBM E-score” value: -0.0126 for the first, 0.133 for the second.

Compared with TGGTGTAA, ATTACAAT is higher in “PBM E-score” value: -0.0084 for the first, 0.104 for the second.

First: ATTCGTCG
Second: AACGTATA
The “PBM E-score” value of the first is higher: 0.19 for the first, 0.0823 for the second.

Compared with CGCATGAG, CGATAATA is higher in “PBM E-score” value: -0.038 for the first, 0.198 for the second.

Going from TAAATTTA to AACGTCCG, the “PBM E-score” value falls from 0.154 to 0.048.

Compared with GATCACTA, TCTTGTCA is lower in “PBM E-score” value: 0.0452 for the first, -0.035 for the second.

Going from CGTCCGTC to AGTCCGCA, the “PBM E-score” value rises from -0.27 to -0.0617.

Going from ACAAAAGA to GAGCGGTA, the “PBM E-score” value falls from 0.129 to -0.0937.

First: CTTCGTCC
Second: AACCATCT
The “PBM E-score” value of the first is lower: -0.255 for the first, -0.138 for the second.

Going from AGTTTAGG to CACGATGC, the “PBM E-score” value falls from -0.0189 to -0.0719.

Compared with ATGGGTAC, TAAAGCGA is higher in “PBM E-score” value: -0.076 for the first, 0.162 for the second.

Going from ACCCGTCC to CTGTGCCC, the “PBM E-score” value rises from -0.224 to -0.148.

Going from AGTGTTCA to GAGGAGAC, the “PBM E-score” value falls from 0.112 to -0.364.

Compared with AAGCGCGC, ACGTGCTG is lower in “PBM E-score” value: 0.276 for the first, 0.109 for the second.

Compared with GAAACCAA, CCTCGATC is higher in “PBM E-score” value: -0.0638 for the first, 0.0502 for the second.

Going from CGATACGC to TCCTAGAA, the “PBM E-score” value falls from 0.0432 to -0.0867.

Going from ATAGGGCC to TCCGGGCA, the “PBM E-score” value rises from -0.0957 to 0.00134.

Going from CCGAGTTC to GACACAAC, the “PBM E-score” value falls from 0.194 to -0.137.

Going from AATGGGGA to GTCACCAA, the “PBM E-score” value falls from -0.0925 to -0.138.

First: TGGGGGAA
Second: CCACGGTA
The “PBM E-score” value of the first is lower: -0.265 for the first, -0.0167 for the second.

First: ACGCGCTG
Second: AAGAGTTA
The “PBM E-score” value of the first is higher: 0.0982 for the first, -0.0746 for the second.

First: AATGGGCG
Second: CGAGCCTA
The “PBM E-score” value of the first is lower: -0.216 for the first, -0.00061 for the second.

Going from AAACAGTA to GCATATGA, the “PBM E-score” value rises from 0.0141 to 0.118.

Compared with CATACCGC, CCTTTAGC is lower in “PBM E-score” value: 0.0641 for the first, -0.0626 for the second.

First: ACCGATCC
Second: CTGCACGA
The “PBM E-score” value of the first is lower: -0.0178 for the first, 0.00658 for the second.

Going from AAACGTTT to AGCTCGTG, the “PBM E-score” value rises from 0.00653 to 0.0269.

Compared with GCCTCCAC, CCGCAGTC is higher in “PBM E-score” value: -0.139 for the first, -0.0294 for the second.

First: CCTTACAG
Second: CTTTTATA
The “PBM E-score” value of the first is higher: -0.0126 for the first, -0.0788 for the second.

Going from TACAACCA to ACGAATCC, the “PBM E-score” value rises from 0.0846 to 0.13.

First: AGCTCTCC
Second: CAGTAACA
The “PBM E-score” value of the first is lower: -0.212 for the first, 0.0833 for the second.
